Measurements reported in PubChem BioAssay AID1259308 (NCATS, 2017)

Test: 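Knock-downs that increase output of a recombinant reporter protein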 (primary screen)
Cells: human HEK293 embryonic kidney cells stably expressing firefly luciferase (HEK-CMV-Luc2-Hygro)
Reagent: single siRNA against human genes, 0.8 pmol siRNA per well
Duration: 72 h
Measurement: 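Reporter luminescence and viable-cell signal on separate replicate plates, given as percent of non-targeting control and median/MAD z-scores, plus per-cell luciferase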
Scale: total luciferase, z-score and total luciferase, % of control: higher = more reporter protein produced
Active means: 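Active when the median/MAD z-score for overall luciferase is greater than 3; a gene was taken forward for validation with new siRNAs if at least two of its three siRNAs passed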
Calls: active = raised luciferase; inactive = no rise
This is one part, drawn at random, of about 59,000 deposited reagents. Over the whole deposit, about 1,510 (2.6%) are marked active. 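Calls use total luciferase alone and ignore viability, so some active siRNAs may act by altering cell number.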 A number with no mark means an inactive call. Reagents against one gene are numbered here. Further read-outs or replicates are left out here. No sequences are given here.

MGAT3 #1 → total luciferase, z-score = -0.311; total luciferase, % of control = 75.7
MGAT3 #2 → total luciferase, z-score = -0.0741; total luciferase, % of control = 80.4
MGAT3 #3 → total luciferase, z-score = -0.325; total luciferase, % of control = 75.4
OR8D2 (olfactory receptor family 8 subfamily D member 2) #1 → total luciferase, z-score = 0.815; total luciferase, % of control = 98.1
OR8D2 (olfactory receptor family 8 subfamily D member 2) #2 → total luciferase, z-score = -0.432; total luciferase, % of control = 73.3
OR8D2 (olfactory receptor family 8 subfamily D member 2) #3 → total luciferase, z-score = -1.45; total luciferase, % of control = 53
UQCRC1 (ubiquinol-cytochrome c reductase core protein 1) #1 → total luciferase, z-score = -1.19; total luciferase, % of control = 58.2
UQCRC1 (ubiquinol-cytochrome c reductase core protein 1) #2 → total luciferase, z-score = 0.552; total luciferase, % of control = 92.9
UQCRC1 (ubiquinol-cytochrome c reductase core protein 1) #3 → total luciferase, z-score = 1.04; total luciferase, % of control = 103
SAMM50 (SAMM50 sorting and assembly machinery component) #1 → total luciferase, z-score = -0.424; total luciferase, % of control = 73.5
SAMM50 (SAMM50 sorting and assembly machinery component) #2 → total luciferase, z-score = 0.32; total luciferase, % of control = 88.3
SAMM50 (SAMM50 sorting and assembly machinery component) #3 → total luciferase, z-score = 0.18; total luciferase, % of control = 85.5
DDX46 (DEAD-box helicase 46) #1 → total luciferase, z-score = 2.23; total luciferase, % of control = 126
DDX46 (DEAD-box helicase 46) #2 → total luciferase, z-score = 0.603; total luciferase, % of control = 93.9
DDX46 (DEAD-box helicase 46) #3 → total luciferase, z-score = 0.623; total luciferase, % of control = 94.3
SPIB (Spi-B transcription factor) #1 → total luciferase, z-score = -0.157; total luciferase, % of control = 78.8
SPIB (Spi-B transcription factor) #2 → total luciferase, z-score = 0.183; total luciferase, % of control = 85.5
SPIB (Spi-B transcription factor) #3 → total luciferase, z-score = 1.09; total luciferase, % of control = 104
TACC1 (transforming acidic coiled-coil containing protein 1) #1 → total luciferase, z-score = -0.106; total luciferase, % of control = 79.8
TACC1 (transforming acidic coiled-coil containing protein 1) #2 → total luciferase, z-score = -1.82; total luciferase, % of control = 45.8
TACC1 (transforming acidic coiled-coil containing protein 1) #3 → total luciferase, z-score = -1.3; total luciferase, % of control = 56
DYM (dymeclin) #1 → total luciferase, z-score = -1.35; total luciferase, % of control = 55.1
DYM (dymeclin) #2 → total luciferase, z-score = 0.749; total luciferase, % of control = 96.8
DYM (dymeclin) #3 → total luciferase, z-score = 0.126; total luciferase, % of control = 84.4
PELI1 (pellino E3 ubiquitin protein ligase 1) #1 → total luciferase, z-score = 0.618; total luciferase, % of control = 94.2
PELI1 (pellino E3 ubiquitin protein ligase 1) #2 → total luciferase, z-score = 0.886; total luciferase, % of control = 99.5
PELI1 (pellino E3 ubiquitin protein ligase 1) #3 → total luciferase, z-score = -0.714; total luciferase, % of control = 67.7
CSTF3 (cleavage stimulation factor subunit 3) #1 → total luciferase, z-score = -0.129; total luciferase, % of control = 79.3
CSTF3 (cleavage stimulation factor subunit 3) #2 → total luciferase, z-score = -0.315; total luciferase, % of control = 75.6
CSTF3 (cleavage stimulation factor subunit 3) #3 → total luciferase, z-score = 1.07; total luciferase, % of control = 103
LRFN5 #1 → total luciferase, z-score = 0.455; total luciferase, % of control = 90.9
LRFN5 #2 → total luciferase, z-score = 1.63; total luciferase, % of control = 114
LRFN5 #3 → total luciferase, z-score = -0.571; total luciferase, % of control = 70.5
RPH3A (rabphilin 3A) #1 → total luciferase, z-score = 0.691; total luciferase, % of control = 95.6
RPH3A (rabphilin 3A) #2 → total luciferase, z-score = -0.799; total luciferase, % of control = 66
RPH3A (rabphilin 3A) #3 → total luciferase, z-score = -0.00283; total luciferase, % of control = 81.8
NCF4 (neutrophil cytosolic factor 4) #1 → total luciferase, z-score = -0.958; total luciferase, % of control = 62.8
NCF4 (neutrophil cytosolic factor 4) #2 → total luciferase, z-score = 0.454; total luciferase, % of control = 90.9
NCF4 (neutrophil cytosolic factor 4) #3 → total luciferase, z-score = -0.138; total luciferase, % of control = 79.1
MMAB (metabolism of cobalamin associated B) #1 → total luciferase, z-score = 0.11; total luciferase, % of control = 84.1
MMAB (metabolism of cobalamin associated B) #2 → total luciferase, z-score = -1.97; total luciferase, % of control = 42.7
MMAB (metabolism of cobalamin associated B) #3 → total luciferase, z-score = -0.379; total luciferase, % of control = 74.4

Sorted by “total luciferase, z-score” (descending): some entries from above
UQCRC1 (ubiquinol-cytochrome c reductase core protein 1) #3 → total luciferase, z-score = 1.04; total luciferase, % of control = 103
SAMM50 (SAMM50 sorting and assembly machinery component) #2 → total luciferase, z-score = 0.32; total luciferase, % of control = 88.3
SAMM50 (SAMM50 sorting and assembly machinery component) #1 → total luciferase, z-score = -0.424; total luciferase, % of control = 73.5
